# Measured values published in publication PMC9239213.
# T1: N-terminal fusion of the cyaA T25 fragment to PstB (Salmonella enterica serovar Typhimurium)
# T1 sequence: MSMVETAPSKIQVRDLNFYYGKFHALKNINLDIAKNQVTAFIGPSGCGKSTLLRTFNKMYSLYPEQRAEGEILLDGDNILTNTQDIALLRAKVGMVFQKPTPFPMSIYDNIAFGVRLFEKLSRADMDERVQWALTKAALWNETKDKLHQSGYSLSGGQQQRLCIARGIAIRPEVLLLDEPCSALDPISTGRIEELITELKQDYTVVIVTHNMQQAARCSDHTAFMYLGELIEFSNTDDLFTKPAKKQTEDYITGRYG
# T2: N-terminally T25-fused PhoR (Salmonella enterica serovar Typhimurium)
# T2 sequence: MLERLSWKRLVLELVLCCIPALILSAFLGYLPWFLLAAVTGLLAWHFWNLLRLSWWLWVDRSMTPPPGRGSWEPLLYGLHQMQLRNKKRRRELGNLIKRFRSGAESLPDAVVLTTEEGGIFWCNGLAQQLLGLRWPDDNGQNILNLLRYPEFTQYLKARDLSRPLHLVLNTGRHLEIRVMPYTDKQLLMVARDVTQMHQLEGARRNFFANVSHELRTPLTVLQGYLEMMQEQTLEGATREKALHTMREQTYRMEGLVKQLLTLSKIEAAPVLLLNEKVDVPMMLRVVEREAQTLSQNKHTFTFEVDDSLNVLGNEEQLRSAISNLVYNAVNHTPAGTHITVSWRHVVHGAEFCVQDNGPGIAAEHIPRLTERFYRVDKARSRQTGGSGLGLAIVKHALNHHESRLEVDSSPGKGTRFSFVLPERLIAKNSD
# B1: C-terminally His-tagged PhoU protein (protein, UniProt A0A2X4TL38 1-241)
# chain: MDSLNLNKHISGQFNAELESIRTQVMTMGGMVEQQLSDAITAMHNQDSELAKRVIDGDKHVNMMEVAIDEACVRIIAKRQPTASDLRLVMAIIKTIAELERIGDVADKICRTALEKFSQQHQPLLVSLESLGRHTVQMLHDVLDAFARMDLDEAVRIYREDKKVDQEYEGIVRQLMTYMMEDSRTIPSVLTALFCARSIERIGDRCQNICEYIFYFVKGQDFRHVGGDELDKLLAGKDPKE
# B2: N-terminally T18-fused PhoU (protein, UniProt A0A2X4TL38 1-241)
# chain: B1 chain
# B3: T18-PhoU(1-181) (domain or fragment, UniProt A0A2X4TL38 1-181)
# chain: MDSLNLNKHISGQFNAELESIRTQVMTMGGMVEQQLSDAITAMHNQDSELAKRVIDGDKHVNMMEVAIDEACVRIIAKRQPTASDLRLVMAIIKTIAELERIGDVADKICRTALEKFSQQHQPLLVSLESLGRHTVQMLHDVLDAFARMDLDEAVRIYREDKKVDQEYEGIVRQLMTYMME
# B4: T18-PhoU(1-77) (domain or fragment, UniProt A0A2X4TL38 1-77)
# chain: MDSLNLNKHISGQFNAELESIRTQVMTMGGMVEQQLSDAITAMHNQDSELAKRVIDGDKHVNMMEVAIDEACVRIIA
# B5: T18-PhoU(1-218) (domain or fragment, UniProt A0A2X4TL38 1-218)
# chain: MDSLNLNKHISGQFNAELESIRTQVMTMGGMVEQQLSDAITAMHNQDSELAKRVIDGDKHVNMMEVAIDEACVRIIAKRQPTASDLRLVMAIIKTIAELERIGDVADKICRTALEKFSQQHQPLLVSLESLGRHTVQMLHDVLDAFARMDLDEAVRIYREDKKVDQEYEGIVRQLMTYMMEDSRTIPSVLTALFCARSIERIGDRCQNICEYIFYFVK
# B6: T18-PhoU(1-120) (domain or fragment, UniProt A0A2X4TL38 1-120)
# chain: MDSLNLNKHISGQFNAELESIRTQVMTMGGMVEQQLSDAITAMHNQDSELAKRVIDGDKHVNMMEVAIDEACVRIIAKRQPTASDLRLVMAIIKTIAELERIGDVADKICRTALEKFSQQ
# B7: T18-PhoU(1-119) (domain or fragment, UniProt A0A2X4TL38 1-119)
# chain: MDSLNLNKHISGQFNAELESIRTQVMTMGGMVEQQLSDAITAMHNQDSELAKRVIDGDKHVNMMEVAIDEACVRIIAKRQPTASDLRLVMAIIKTIAELERIGDVADKICRTALEKFSQ
# B8: T18-PhoU(1-147) (domain or fragment, UniProt A0A2X4TL38 1-147)
# chain: MDSLNLNKHISGQFNAELESIRTQVMTMGGMVEQQLSDAITAMHNQDSELAKRVIDGDKHVNMMEVAIDEACVRIIAKRQPTASDLRLVMAIIKTIAELERIGDVADKICRTALEKFSQQHQPLLVSLESLGRHTVQMLHDVLDAFA
# Biological target: C-terminally 8×Myc-tagged PhoR protein (Salmonella enterica serovar Typhimurium)
# Experiment: co-IP; crude extracts of Salmonella (phoR-8×Myc background, PhoU-His from pBAD33) in TBS; anti-Myc antibody and protein G Sepharose, 2 h at 4°C; blots with anti-His and anti-Myc
row,Binder,binding
1,B1,binds

# Biological target: T1, N-terminal fusion of the cyaA T25 fragment to PstB (Salmonella enterica serovar Typhimurium)
# Experiment: two-hybrid; bacterial two-hybrid (BACTH) in E. coli BTH101 lacking cya; CyaA T18 and T25 fusions; spotted on LB plates with X-Gal and IPTG, 30°C, 40 h; β-galactosidase assay (Miller units)
row,Binder,binding
1,B2,binds

# Biological target: T2, N-terminally T25-fused PhoR (Salmonella enterica serovar Typhimurium)
# Experiment: as above
row,Binder,binding
1,B3,no binding
2,B4,no binding
3,B5,binds
4,"MDSLNLNKHISGQFNAELESIRTQVMTMGGMVEQQLSDAITAMH (domain or fragment, UniProt A0A2X4TL38 1-44) [T18-PhoU(1-44)]",no binding
5,B2,binds
6,B6,no binding
7,B7,no binding
8,B8,no binding

# Results are given in words; binding and its absence hold for the method and conditions named. A result given as binding can be weak or reduced; the word gives no strength. Where a sequence is shown, tags or fusion partners need not be part of it. For some of these results: Binding seen in cells or lysates may run through a third protein.
